Measured values reported in PubChem BioAssay AID256 (DTP/NCI, 2004).
The list shows only some results of the screen, not a fair sample: it gathers tests that were run many times, whatever their T/C, doses with no T/C, and many T/C values between a quarter and a half above the control. Other doses and runs of a compound stand elsewhere. T/C: endpoint of the treated group in % of that of the vehicle group. Some doses have a count of surviving animals in place of a T/C: the source holds a T/C of zero for them, seemingly a mark for toxic or unscored doses. Some doses without a T/C left all or most animals alive at the check, yet need not have been tolerated: survival well below the control is almost never listed, so the zero probably covers shortened survival too. Counts of survivors are from the toxicity check (mostly the fifth day) where no day follows; animals may have died later. Schedules are NCI's codes, taken here to give the interval after Q, in days (D) or hours (H), and the number of doses after X. Some structures stand for samples that the source files as different forms (salt, stereo form or complex); doses refer to the form tested. For survival time, the PubChem record calls one and a half times the control and up active, and a quarter to a half above the control has no call in these data; cut-offs in other NCI protocols can differ. Some entries were tested several times; their values stand side by side, smallest first. Some T/C values are followed by the survivors on the day toxicity was checked, most often the fifth; without a count, all were alive then.

Test system: CD2F1 mice, L1210 leukemia ip, survival T/C
Experiment: NCI In Vivo Anticancer Drug Screen. Data for tumor model L1210 Leukemia (intraperitoneal) in CD2F1 (CDF1) mice
Conditions: higher T/C = longer survival
Method: The antitumor activity of compounds was measured in mice bearing transplantable tumors. Survival or tumor size were measured and the results are expressed as the measurement made in the treated group (T) divided by the measurement made in the vehicle treated control group (C). The tumor model used in this assay is L1210 Leukemia (intraperitoneal) in CD2F1 (CDF1) mice

[1] = T/C endpoint: mean survival time, dose: 400.0 mg/kg/injection, schedule: Q01DX001 (ip), vehicle: saline with Tween-80
[2] = T/C endpoint: mean survival time, dose: 100.0 mg/kg/injection, schedule: Q01DX009 (ip), vehicle: saline with Tween-80
[3] = T/C endpoint: mean survival time, dose: 200.0 mg/kg/injection, schedule: Q01DX009 (ip), vehicle: saline with Tween-80
[4] = T/C endpoint: mean survival time, dose: 400.0 mg/kg/injection, schedule: Q01DX009 (ip), vehicle: saline with Tween-80
[5] = T/C endpoint: mean survival time, dose: 400.0 mg/kg/injection, schedule: Q04DX003 (ip), vehicle: saline with Tween-80
[6] = T/C endpoint: mean survival time, dose: 50.0 mg/kg/injection, schedule: Q04DX003 (ip), vehicle: saline with Tween-80
[7] = T/C endpoint: mean survival time, dose: 25.0 mg/kg/injection, schedule: Q01DX009 (ip), vehicle: saline with Tween-80
[8] = T/C endpoint: mean survival time, dose: 50.0 mg/kg/injection, schedule: Q01DX009 (ip), vehicle: saline with Tween-80
[9] = T/C endpoint: mean survival time, dose: 100.0 mg/kg/injection, schedule: Q01DX001 (ip), vehicle: saline with Tween-80
[10] = T/C endpoint: mean survival time, dose: 200.0 mg/kg/injection, schedule: Q01DX001 (ip), vehicle: saline with Tween-80

SMILES: CC1=NN(c2ccc([N+](=O)[O-])cc2)C(=O)C1[N+](=O)[O-] (stereo unspecified) (tested in a mixture with another compound)
- survivor count (T/C endpoint: mean survival time, dose: 300.0 mg/kg/injection, schedule: Q01DX001 (ip), vehicle: other): 3 of 6
- survivor count [1]: 0 of 6

SMILES: COc1ccc(NC(=O)Oc2ccc(Cl)cc2Cl)cc1
- survivor count (T/C endpoint: mean survival time, dose: 200.0 mg/kg/injection, schedule: Q04DX002 (ip), vehicle: saline with Tween-80): 3 of 3

SMILES: N#CC(=C=[N-])[n+]1ccccc1
- survivor count (T/C endpoint: mean survival time, dose: 50.0 mg/kg/injection, schedule: Q04DX003 (ip), vehicle: Klucel (hydroxypropylcellulose) (HPC)): 3 of 6

SMILES: O=C1c2cccc3c2C2(O)c4c1cccc4C(=O)c1cccc(c12)C3=O
- survivor count (T/C endpoint: mean survival time, dose: 300.0 mg/kg/injection, schedule: Q01DX009 (ip), vehicle: saline with Tween-80): 0 of 6

SMILES: CC(CCC(C)OS(C)(=O)=O)OS(C)(=O)=O (stereo unspecified)
- T/C (T/C endpoint: mean survival time, dose: 8.0 mg/kg/injection, schedule: Q01DX009 (ip), vehicle: saline): 126 % of control

SMILES: Nc1nc(OCc2ccccc2)ncc1C(=O)NC(CO)C(=O)O (stereo unspecified)
- survivor count [2]: 2 of 6
- survivor count [3]: 1 of 6
- survivor count [4]: 0 of 6

SMILES: CCCCCCOS(=O)OCC(Cl)COC (stereo unspecified)
- survivor count [4]: 5 of 6

SMILES: CON(C)C(=O)N1c2ccccc2Sc2ccccc21
- survivor count [5]: 6 of 6

SMILES: Cc1ccc(C(=O)c2ccc([N+](=O)[O-])cc2)cc1
- survivor count [5]: 1 of 3

SMILES: c1ccc2c3c([nH]c2c1)CN1CCNCC1C3 (stereo unspecified)
- survivor count [2]: 1 of 6
- survivor count [3]: 1 of 6
- survivor count [4]: 1 of 6

SMILES: S=C=NCCc1ccccc1
- survivor count [2]: 6 of 6

SMILES: O=C(O)/C=C/C(=O)c1ccccc1
- survivor count [6]: 2 of 6

SMILES: ClCCn1c(CCl)nc2ccc(Cl)cc21
- survivor count (T/C endpoint: mean survival time, dose: 20.0 mg/kg/injection, schedule: Q01DX009 (ip), vehicle: Klucel (hydroxypropylcellulose) (HPC)): 6 of 6
- survivor count (T/C endpoint: mean survival time, dose: 40.0 mg/kg/injection, schedule: Q01DX009 (ip), vehicle: Klucel (hydroxypropylcellulose) (HPC)): 1 of 6

SMILES: Nc1nc(N)c(-c2ccc(Cl)c(Cl)c2)c(/C=C/C=C/c2cccnc2)n1
- T/C [7]: 136 % of control
- survivor count [2]: 6 of 6
- survivor count [3]: 6 of 6
- survivor count [4]: 0 of 6

SMILES: CCCCN(C)CCNc1cc(C)nc(Nc2nc3ccc(Cl)cc3[nH]2)n1
- T/C (T/C endpoint: mean survival time, dose: 12.5 mg/kg/injection, schedule: Q01DX009 (ip), vehicle: saline with Tween-80): 143 % of control
- T/C [7]: 147 % of control
- T/C [8]: 135 % of control
- survivor count [2]: 2 of 6
- survivor count [3]: 0 of 6
- survivor count [1]: 0 of 6

SMILES: CC(C)(C)N1CC(C(O)(c2ccccc2)c2ccccc2)C1
- survivor count [9]: 0 of 6

SMILES: [N-]=[N+]=CC(=O)NCC(=O)NCCNCCO
- T/C (T/C endpoint: mean survival time, dose: 200.0 mg/kg/injection, schedule: Q01DX009 (ip), vehicle: other): 141 % of control

SMILES: CC[C@@]1(O)C(=O)OCc2c1cc1n(c2=O)Cc2c-1nc1ccccc1c2Cl
- T/C (T/C endpoint: mean survival time, dose: 12.5 mg/kg/injection, schedule: Q01DX001 (ip), vehicle: saline): 127 % of control
- T/C (T/C endpoint: mean survival time, dose: 25.0 mg/kg/injection, schedule: Q01DX001 (ip), vehicle: saline with Tween-80): 138 % of control
- T/C (T/C endpoint: mean survival time, dose: 25.0 mg/kg/injection, schedule: Q01DX001 (ip), vehicle: saline): 133 % of control
- T/C (T/C endpoint: mean survival time, dose: 50.0 mg/kg/injection, schedule: Q01DX001 (ip), vehicle: saline with Tween-80): 129 % of control
- T/C (T/C endpoint: mean survival time, dose: 50.0 mg/kg/injection, schedule: Q01DX001 (ip), vehicle: saline): 131 % of control
- T/C [9]: 130 % of control
- T/C (T/C endpoint: mean survival time, dose: 100.0 mg/kg/injection, schedule: Q01DX001 (ip), vehicle: saline): 143 % of control
- T/C [10]: 138 % of control [5 of 6 alive]
- T/C (T/C endpoint: mean survival time, dose: 200.0 mg/kg/injection, schedule: Q01DX001 (ip), vehicle: saline): 137 % of control
- T/C (T/C endpoint: mean survival time, dose: 400.0 mg/kg/injection, schedule: Q01DX001 (ip), vehicle: saline): 141 % of control

SMILES: O=C(O)CC(c1ccccc1)C(CC(=O)O)c1ccccc1.[NH-]C1CCCCC1[NH-].[Pt+2] (stereo unspecified)
- T/C (T/C endpoint: median survival time, dose: 100.0 mg/kg/injection, schedule: Q04DX003 (ip), vehicle: saline with Tween-80): 133 % of control
- survivor count (T/C endpoint: median survival time, dose: 200.0 mg/kg/injection, schedule: Q04DX003 (ip), vehicle: saline with Tween-80): 3 of 6
- T/C (T/C endpoint: median survival time, dose: 200.0 mg/kg/injection, schedule: Q04DX003 (ip), vehicle: saline): 139 % of control

SMILES: COC(=O)c1ccccc1NC1=NCCO1
- survivor count (T/C endpoint: mean survival time, dose: 100.0 mg/kg/injection, schedule: Q04DX003 (ip), vehicle: Klucel (hydroxypropylcellulose) (HPC)): 6 of 6

SMILES: O=S(=O)(NC(=S)Nc1ccc(Cl)cc1)c1ccccc1
- survivor count [4]: 0 of 6

SMILES: CO[C@@]12[C@@H]3N[C@@H]3CN1C1=C(C(=O)C(NCCN)=C(C)C1=O)[C@@H]2COC(N)=O
- T/C (T/C endpoint: median survival time, dose: 1.5 mg/kg/injection, schedule: Q01DX001 (ip), vehicle: water): 125 and 133 % of control
- T/C (T/C endpoint: median survival time, dose: 3.0 mg/kg/injection, schedule: Q01DX001 (ip), vehicle: water): 138, 147, 148 % of control

SMILES: OCc1ccc2[n+](c1)CCc1c-2[nH]c2ccccc12
- survivor count [9]: 6 of 6
- survivor count [10]: 0 of 6
- survivor count [1]: 0 of 6

SMILES: NC(=O)c1ccc[n+](Cc2ccccc2)c1
- survivor count (T/C endpoint: mean survival time, dose: 300.0 mg/kg/injection, schedule: Q01DX001 (ip), vehicle: saline): 1 of 6

SMILES: O=C(O)C(CSC(c1ccccc1)(c1ccccc1)c1ccccc1)N=Cc1cccs1 (stereo unspecified)
- T/C (T/C endpoint: mean survival time, dose: 25.0 mg/kg/injection, schedule: Q01DX009 (ip), vehicle: saline): 125 % of control
- T/C [8]: 128 % of control
- T/C (T/C endpoint: mean survival time, dose: 50.0 mg/kg/injection, schedule: Q01DX009 (ip), vehicle: saline): 134 % of control
- T/C (T/C endpoint: mean survival time, dose: 50.0 mg/kg/injection, schedule: Q01DX009 (ip), vehicle: suspension in saline): 134 % of control
- T/C (T/C endpoint: mean survival time, dose: 100.0 mg/kg/injection, schedule: Q01DX009 (ip), vehicle: saline): 133 % of control [5 of 6 alive]
- survivor count (T/C endpoint: mean survival time, dose: 150.0 mg/kg/injection, schedule: Q01DX009 (ip), vehicle: saline): 6 of 6
- survivor count (T/C endpoint: mean survival time, dose: 400.0 mg/kg/injection, schedule: Q01DX009 (ip), vehicle: saline): 1 of 6
- survivor count (T/C endpoint: mean survival time, dose: 400.0 mg/kg/injection, schedule: Q01DX009 (ip), vehicle: suspension in saline): 0 of 6

SMILES: CC(C)C(NC(=O)C(NC(=O)C(CCCN=C(N)N)NC(=O)C(N)CCCCN)C(C)C)C(N)=O (stereo unspecified)
- survivor count (T/C endpoint: mean survival time, dose: 400.0 mg/kg/injection, schedule: Q01DX009 (ip), vehicle: water): 3 of 6

SMILES: CCC[CH2][Sn]([Cl])([CH2]Cl)[CH2]CCC
- survivor count (T/C endpoint: mean survival time, dose: 10.0 mg/kg/injection, schedule: Q04DX003 (ip), vehicle: saline): 6 of 6

SMILES: [O-]/[N+](=C\c1ccccc1)c1ccccc1
- survivor count [5]: 3 of 6

SMILES: CC(=O)CC(C)=O.CC(=O)CC(C)=O.CC(=O)CC(C)=O.[Fe]
- survivor count [7]: 3 of 6
- survivor count [6]: 0 of 6
- survivor count (T/C endpoint: mean survival time, dose: 100.0 mg/kg/injection, schedule: Q04DX003 (ip), vehicle: saline with Tween-80): 5 of 6
- survivor count (T/C endpoint: mean survival time, dose: 200.0 mg/kg/injection, schedule: Q04DX003 (ip), vehicle: saline with Tween-80): 0 of 6
- survivor count [5]: 0 of 6

SMILES: NN(C(=O)c1ccccc1)C1CCCCC1
- survivor count [3]: 5 of 6
- survivor count [4]: 0 of 6

SMILES: O=Cc1[nH]c(=S)[nH]c(=O)c1CCCc1ccccc1
- survivor count (T/C endpoint: mean survival time, dose: 100.0 mg/kg/injection, schedule: Q04DX002 (ip), vehicle: Klucel (hydroxypropylcellulose) (HPC)): 0 of 3

SMILES: CCCCCCCC(=O)/C=C/Sc1n[nH]c(=O)[nH]c1=O
- survivor count (T/C endpoint: mean survival time, dose: 100.0 mg/kg/injection, schedule: Q01DX005 (ip), vehicle: distilled water + Tween-80): 5 of 6
- survivor count (T/C endpoint: mean survival time, dose: 200.0 mg/kg/injection, schedule: Q01DX005 (ip), vehicle: distilled water + Tween-80): 0 of 6

SMILES: [Cl][Pt][Cl].c1ccc2[nH]c(C3CCCC[N-]3)nc2c1 (stereo unspecified)
- survivor count [2]: 6 of 6

SMILES: [Cl][Pt+2]([Cl])([Cl])[Cl].[NH-]C1CCCCC1.[NH-]C1CCCCC1
- survivor count [3]: 0 of 6

SMILES: CCOC(=O)CCC(NC(=O)c1ccc(CN(C)Cc2cnc3nc(N)nc(N)c3n2)cc1)C(=O)OCC (stereo unspecified)
- T/C (T/C endpoint: mean survival time, dose: 50.0 mg/kg/injection, schedule: Q01DX009 (ip), vehicle: Klucel (hydroxypropylcellulose) (HPC)): 125 % of control
